Our source for the binding values is publication PMC9802314.

Residue numbers refer to the chain shown, from its start. Numbers in names are those of the source. No constants are given. Whether binding was seen depends on the method and setting. Some entries that bind do so weakly or less than the wild type. For part of these data: Where a sequence is shown, tags or fusion partners need not be part of it.

B1: Nqo13 subunit of Paracoccus denitrificans complex I, wild type (protein, UniProt P29925 1-513)
chain: MTNLLSIITFLPIVAAIIMALFLRGQDEAAARNAKWLALLTTTATFVISLFVLFRFDPANTGFQFVEDHAWIMGVCYKMGVDGISVLFVLLTTFMMPLTILSTWQVQDKVKEYMIAFLVLEGLMIGVFTALDLVLFYLFFEAGLIPMFLIIGIWGGKDRIYASFKFFLYTFLGSVLMLVAMIAMYRMAGTTDIPTLLTFDFPSENFRLLGMTVVGGMQMLLFLAFFASFAVKMPMWPVHTWLPDAHVQAPTAGSVLLAAVLLKMGGYGFLRFSLPMFPVASGVAQPYVFWLSAIAIVYTSLVALAQSDMKKVIAYSSVAHMGYVTMGVFAANQIGVDGAIFQMLSHGFISGALFLCVGVIYDRMHTREIDAYGGLVNRMPAYAAVFMFFTMANVGLPGTSGFVGEFLTLMGVFRVDTWVALVATSGVILSAAYALWLYRRVTLGQLIKESLKSITDMTPRERWVFIPLIAMTLILGVYPRLVTDVTGPAVAALVQDYNQSQPAAPVATAQASH
B2: Nqo13 L242A (protein, UniProt P29925 1-513)
chain: B1 chain with L242A
B3: Nqo13 W241F (protein, UniProt P29925 1-513)
chain: B1 chain with W241F
B4: Nqo13 Y315F (protein, UniProt P29925 1-513)
chain: B1 chain with Y315F
B5: Nqo13 R367H (protein, UniProt P29925 1-513)
chain: B1 chain with R367H
B6: Nqo13 H246F (protein, UniProt P29925 1-513)
chain: B1 chain with H246F
B7: Nqo13 K263Q (protein, UniProt P29925 1-513)
chain: B1 chain with K263Q
B8: Nqo13 A314L (protein, UniProt P29925 1-513)
chain: B1 chain with A314L
B9: Nqo13 K232Q (protein, UniProt P29925 1-513)
chain: B1 chain with K232Q
B10: Nqo13 H320L (protein, UniProt P29925 1-513)
chain: B1 chain with H320L
B11: Nqo13 H346Q (protein, UniProt P29925 1-513)
chain: B1 chain with H346Q
B12: Nqo13 E405Q (protein, UniProt P29925 1-513)
chain: B1 chain with E405Q
B13: Nqo13 H239Q (protein, UniProt P29925 1-513)
chain: B1 chain with H239Q
B14: Nqo13 E141Q (protein, UniProt P29925 1-513)
chain: B1 chain with E141Q
B15: Nqo14 subunit of Paracoccus denitrificans complex I (protein, UniProt P29926 1-499)
chain: MTSLDFSTILPEVVLAGYALAALMAGAYLGKDRLARTLLWVTVAAFLVVAAMVGLGNHVDGAAFHGMFIDDGFSRFAKVVTLVAAAGVLAMSADYMQRRNMLRFEFPIIVALAVLGMMFMVSAGDLLTLYMGLELQSLALYVVAAMRRDSVRSSEAGLKYFVLGSLSSGLLLYGASLVYGFAGTTGFEGIISTIEAGHLSLGVLFGLVFMLVGLSFKVSAVPFHMWTPDVYEGSPTPVTAFFATAPKVAAMALIARLVFDAFGHVIGDWSQIVAALAVMSMFLGSIAGIGQTNIKRLMAYSSIAHMGFALVGLAAGTAIGVQNMLLYMTIYAVMNIGTFAFILSMERDGVPVTDLAALNRFAWTDPVKALAMLVLMFSLAGVPPTLGFFAKFGVLTAAVDAGMGWLAVLGVIASVIGAFYYLRIVYYMYFGGESEGMTSRMGAVQYLALMVPALAMLVGAISMFGVDSAAGRAAETLVGPVAAIEQPAEAAQAEPVQGE
B16: Nqo12 D648N (protein, UniProt P29924 1-703)
chain: MEKFVLFAPLIASLIAGLGWRAIGEKAAQYLTTGVLFLSCLISWYLFLSFDGVPRHIPVLDWVVTGDFHAEWAIRLDRLTAIMLIVVTTVSALVHMYSLGYMAHDDNWTHDEHYKARFFAYLSFFTFAMLMLVTADNLLQMFFGWEGVGVASYLLIGFYYKKASANAAAMKAFIVNRVGDFGFLLGIFGIYWLTGSVQFDEIFRQVPQLAQTEIDFLWRDWNAANLLGFLLFVGAMGKSAQLLLHTWLPDAMEGPTPVSALIHAATMVTAGVFLVCRMSPLYEFAPDAKNFIVIIGATTAFFAATVGLVQNDIKRVIAYSTCSQLGYMFVAAGVGVYSAAMFHLLTHAFFKAMLFLGAGSVIHAMHHEQDMRNYGGLRKKIPLTFWAMMIGTFAITGVGIPLTHLGFAGFLSKDAIIESAYAGSGYAFWLLVIAACFTSFYSWRLIFLTFYGKPRGDHHAHDHAHESPPVMTIPLGVLAIGAVFAGMVWYGPFFGDHHKVTEYFHIAGAHHEAAEGEEAEHATAEAPVEHAVADTATAEGEAAAEAEHAEIAAPVGGAIYMHPDNHIMDEAHHAPAWVKVSPFVAMVLGLITAWTFYIANPSLPRRLAAHEPALYRFLLNKWYFDEIYEFIFVRPAKWLGRVLWKGGNGAVIDGTINGVAMGLIPRLTRAAVRVQSGYLFHYAFAMVLGIVGLLIWVMMRGAH
B17: Nqo12 subunit of Paracoccus denitrificans complex I, wild type (protein, UniProt P29924 1-703)
chain: B16 chain with N648D

The first assay concerns the target T1, Nqo12 D648N (Paracoccus denitrificans) (UniProt P29924).
T1 sequence: B16 chain
The assay can be described thus: co-purification of the complex (purified by its tag, SEC, SDS-PAGE); complex I purified from membranes of the P. denitrificans Pd-Nqo5^His6 strain as in ref. 24; size-exclusion elution profile compared with wild type; 10 ug of purified complex on SDS-PAGE, Coomassie R250.
For the molecule B1, the binding entry is given as “binds”.

A further assay addresses T2, Nqo12 subunit of Paracoccus denitrificans complex I, wild type (Paracoccus denitrificans) (UniProt P29924).
T2 sequence: B16 chain with N648D
Described as above.
Take B1: the binding entry was “binds”. Same read-out and setting: under B2 stands “binds”; under B3, “binds”; under B4, “binds”. Still for that read-out and setting: in the case of B5 it was “binds”. Turning to B6, the binding result is recorded as “binds”.

Take B7: the binding result is “binds”. Consider B8, for which the binding entry was “binds”.

In the case of B9, the binding entry is on record as “binds”. For the molecule B10, the binding entry is on record as “binds”. The same measure, in the same setting: under B11 stands “binds”.

For the molecule B12, the binding result was “binds”. For B13, the binding entry is given as “binds”. Consider B14, for which the binding entry was “binds”. Still for that read-out and setting: under B15 stands “binds”.

The next assay addresses T3, Nqo5 subunit of Paracoccus denitrificans complex I with a His6 tag (strain Pd-Nqo5^His6) (Paracoccus denitrificans) (UniProt P29917).
T3 sequence: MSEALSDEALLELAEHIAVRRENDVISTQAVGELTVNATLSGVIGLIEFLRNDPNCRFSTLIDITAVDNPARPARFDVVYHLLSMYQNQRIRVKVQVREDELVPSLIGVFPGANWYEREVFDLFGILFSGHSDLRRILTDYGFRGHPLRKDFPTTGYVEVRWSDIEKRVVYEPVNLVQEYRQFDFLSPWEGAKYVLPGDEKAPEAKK
The assay is described as above.
B1: the binding entry was “binds”. Consider B2, for which the binding result is listed as “binds”.

On to B3, for which the binding result is on record as “binds”. Consider B4, for which the binding entry is on record as “binds”. Take B5: the binding result is “binds”. On the same count and under the same terms, under B6 stands “binds”. Same read-out and setting: under B7 stands “binds”; under B8, “binds”; under B9, “binds”. B10: the binding result is “binds”. On the same count and under the same terms, in the case of B11 it was “binds”. Still for that read-out and setting: in the case of B12 it was “binds”; in that of B13, “binds”. The same measure, in the same setting: in the case of B14 it was “binds”; in that of B16, “binds”. For B17, the binding result was “binds”. Same read-out and setting: in the case of B15 it was “binds”.
